Measurements: patent US11220671B2, “Methods for the maturation of cardiomyocytes on amniotic fluid cell-derived ECM, cellular constructs, and uses for cardiotoxicity and proarrhythmic screening of drug compounds” (STEMBIOSYS, INC., priority 2019, dated 2022)

B1: Far upstream element-binding protein 1 (protein, UniProt Q96AE4 2-644, looked up)
Far upstream element-binding …: ADYSTVPPPSSGSAGGGGGGGGGGGVNDAFKDALQRARQIAAKIGGDAGTSLNSNDYGYGGQKRPLEDGDQPDAKKVAPQNDSFGTQLPPMHQQQSRSVMTEEYKVPDGMVGFIIGRGGEQISRIQQESGCKIQIAPDSGGLPERSCMLTGTPESVQSAKRLLDQIVEKGRPAPGFHHGDGPGNAVQEIMIPASKAGLVIGKGGETIKQLQERAGVKMVMIQDGPQNTGADKPLRITGDPYKVQQAKEMVLELIRDQGGFREVRNEYGSRIGGNEGIDVPIPRFAVGIVIGRNGEMIKKIQNDAGVRIQFKPDDGTTPERIAQITGPPDRCQHAAEIITDLLRSVQAGNPGGPGPGGRGRGRGQGNWNMGPPGGLQEFNFIVPTGKTGLIIGKGGETIKSISQQSGARIELQRNPPPNADPNMKLFTIRGTPQQIDYARQLIEEKIGGPVNPLGPPVPHGPHGVPGPHGPPGPPGPGTPMGPYNPAPYNPGPPGPAPHGPPAPYAPQGWGNAYPHWQQQAPPDPAKAGTDPNSAAWAAYYAHYYQQQAQPPPAAPAGAPTTTQTNGQGDQQNPAPAGQVDYTKAWEEYYKKMGQAVPAPTGAPPGGQPDYSAAWAEYYRQQAAYYAQTSPQGMPQHPPAPQGQ
B2: Flotillin-2 (protein, UniProt Q14254 2-428, looked up)
Flotillin-2: GNCHTVGPNEALVVSGGCCGSDYKQYVFGGWAWAWWCISDTQRISLEIMTLQPRCEDVETAEGVALTVTGVAQVKIMTEKELLAVACEQFLGKNVQDIKNVVLQTLEGHLRSILGTLTVEQIYQDRDQFAKLVREVAAPDVGRMGIEILSFTIKDVYDKVDYLSSLGKTQTAVVQRDADIGVAEAERDAGIREAECKKEMLDVKFMADTKIADSKRAFELQKSAFSEEVNIKTAEAQLAYELQGAREQQKIRQEEIEIEVVQRKKQIAVEAQEILRTDKELIATVRRPAEAEAHRIQQIAEGEKVKQVLLAQAEAEKIRKIGEAEAAVIEAMGKAEAERMKLKAEAYQKYGDAAKMALVLEALPQIAAKIAAPLTKVDEIVVLSGDNSKVTSEVNRLLAELPASVHALTGVDLSKIPLIKKATGVQV
B3: Galectin-3-binding protein (protein, UniProt Q08380 19-585, looked up)
Galectin-3-binding protein: VNDGDMRLADGGATNQGRVEIFYRGQWGTVCDNLWDLTDASVVCRALGFENATQALGRAAFGQGSGPIMLDEVQCTGTEASLADCKSLGWLKSNCRHERDAGVVCTNETRSTHTLDLSRELSEALGQIFDSQRGCDLSISVNVQGEDALGFCGHTVILTANLEAQALWKEPGSNVTMSVDAECVPMVRDLLRYFYSRRIDITLSSVKCFHKLASAYGARQLQGYCASLFAILLPQDPSFQMPLDLYAYAVATGDALLEKLCLQFLAWNFEALTQAEAWPSVPTDLLQLLLPRSDLAVPSELALLKAVDTWSWGERASHEEVEGLVEKIRFPMMLPEELFELQFNLSLYWSHEALFQKKTLQALEFHTVPFQLLARYKGLNLTEDTYKPRIYTSPTWSAFVTDSSWSARKSQLVYQSRRGPLVKYSSDYFQAPSDYRYYPYQSFQTPQHPSFLFQDKRVSWSLVYLPTIQSCWNYGFSCSSDELPVLGLTKSGGSDRTIAYENKALMLCEGLFVADVTDFEGWKAAIPSALDTNSSKSTSSFPCPAGHFNGFRTVIRPFYLTNSSGVD
B4: Golgi-associated plant pathogenesis-related protein 1 (protein, UniProt Q9H4G4 2-154, looked up)
Golgi-associated plant …: GKSASKQFHNEVLKAHNEYRQKHGVPPLKLCKNLNREAQQYSEALASTRILKHSPESSRGQCGENLAWASYDQTGKEVADRWYSEIKNYNFQQPGFTSGTGHFTAMVWKNTKKMGVGKASASDGSSFVVARYFPAGNVVNEGFFEENVLPPKK
B5: Gremlin-1 (protein, UniProt O60565 25-184, looked up)
Gremlin-1: KKKGSQGAIPPPDKAQHNDSEQTQSPQQPGSRNRGRGQGRGTAMPGEEVLESSQEALHVTERKYLKRDWCKTQPLKQTIHEEGCNSRTIINRFCYGQCNSFYIPRHIRKEEGSFQSCSFCKPKKFTTMMVTLNCPELQPPTKKKRVTRVKQCRCISIDLD
B6: Hamartin (protein, UniProt Q92574 1-1164, looked up)
Hamartin: MAQQANVGELLAMLDSPMLGVRDDVTAVFKENLNSDRGPMLVNTLVDYYLETSSQPALHILTTLQEPHDKHLLDRINEYVGKAATRLSILSLLGHVIRLQPSWKHKLSQAPLLPSLLKCLKMDTDVVVLTTGVLVLITMLPMIPQSGKQHLLDFFDIFGRLSSWCLKKPGHVAEVYLVHLHASVYALFHRLYGMYPCNFVSFLRSHYSMKENLETFEEVVKPMMEHVRIHPELVTGSKDHELDPRRWKRLETHDVVIECAKISLDPTEASYEDGYSVSHQISARFPHRSADVTTSPYADTQNSYGCATSTPYSTSRLMLLNMPGQLPQTLSSPSTRLITEPPQATLWSPSMVCGMTTPPTSPGNVPPDLSHPYSKVFGTTAGGKGTPLGTPATSPPPAPLCHSDDYVHISLPQATVTPPRKEERMDSARPCLHRQHHLLNDRGSEEPPGSKGSVTLSDLPGFLGDLASEEDSIEKDKEEAAISRELSEITTAEAEPVVPRGGFDSPFYRDSLPGSQRKTHSAASSSQGASVNPEPLHSSLDKLGPDTPKQAFTPIDLPCGSADESPAGDRECQTSLETSIFTPSPCKIPPPTRVGFGSGQPPPYDHLFEVALPKTAHHFVIRKTEELLKKAKGNTEEDGVPSTSPMEVLDRLIQQGADAHSKELNKLPLPSKSVDWTHFGGSPPSDEIRTLRDQLLLLHNQLLYERFKRQQHALRNRRLLRKVIKAAALEEHNAAMKDQLKLQEKDIQMWKVSLQKEQARYNQLQEQRDTMVTKLHSQIRQLQHDREEFYNQSQELQTKLEDCRNMIAELRIELKKANNKVCHTELLLSQVSQKLSNSESVQQQMEFLNRQLLVLGEVNELYLEQLQNKHSDTTKEVEMMKAAYRKELEKNRSHVLQQTQRLDTSQKRILELESHLAKKDHLLLEQKKYLEDVKLQARGQLQAAESRYEAQKRITQVFELEILDLYGRLEKDGLLKKLEEEKAEAAEAAEERLDCCNDGCSDSMVGHNEEASGHNGETKTPRPSSARGSSGSRGGGGSSSSSSELSTPEKPPHQRAGPFSSRWETTMGEASASIPTTVGSLPSSKSFLGMKARELFRNKSESQCDEDGMTSSLSESLKTELGKDLGVEAKIPLNLDGPHPSPPTPDSVGQLHIMDYNETHHEHS
B7: Hyaluronan and proteoglycan link protein 1 (protein, UniProt P10915 16-354, looked up)
Hyaluronan and proteoglycan …: DHLSDNYTLDHDRAIHIQAENGPHLLVEAEQAKVFSHRGGNVTLPCKFYRDPTAFGSGIHKIRIKWTKLTSDYLKEVDVFVSMGYHKKTYGGYQGRVFLKGGSDSDASLVITDLTLEDYGRYKCEVIEGLEDDTVVVALDLQGVVFPYFPRLGRYNLNFHEAQQACLDQDAVIASFDQLYDAWRGGLDWCNAGWLSDGSVQYPITKPREPCGGQNTVPGVRNYGFWDKDKSRYDVFCFTSNFNGRFYYLIHPTKLTYDEAVQACLNDGAQIAKVGQIFAAWKILGYDRCDAGWLADGSVRYPISRPRRRCSPTEAAVRFVGFPDKKHKLYGVYCFRAYN

Test: Composition of amniotic fluid cell-derived ECM by mass spectrometry (total spectra count)
Conditions: amniotic fluid cell-derived ECM Matrix A, mass spectrometry; label = protein component

Q: With B1 as the molecule, how does the “Total Spectra Count Matrix A” value read?
A: 0

Q: Which “Total Spectra Count Matrix A” value does the source give for B2 here?
A: 0

Q: With B3 as the molecule, how does the “Total Spectra Count Matrix A” value read?
A: 0

Q: For B4, which “Total Spectra Count Matrix A” value is on record?
A: 0

Q: For B5, which “Total Spectra Count Matrix A” value is on record?
A: 0

Q: Which “Total Spectra Count Matrix A” value does the source give for B6 here?
A: 0

Q: For B7, which “Total Spectra Count Matrix A” value is on record?
A: 0

Same assay, conditions: amniotic fluid cell-derived ECM Matrix B, mass spectrometry; label = protein component

Q: With B1 as the molecule, how does the “Total Spectra Count Matrix B” value read?
A: 3

Q: Which “Total Spectra Count Matrix B” value does the source give for B2 here?
A: 13

Q: For B3, which “Total Spectra Count Matrix B” value is on record?
A: 4

Q: For B4, which “Total Spectra Count Matrix B” value is on record?
A: 20

Q: For B5, which “Total Spectra Count Matrix B” value is on record?
A: 0

Q: Which “Total Spectra Count Matrix B” value does the source give for B6 here?
A: 0

Q: Which “Total Spectra Count Matrix B” value does the source give for B7 here?
A: 0

Same assay, conditions: amniotic fluid cell-derived ECM Matrix C, mass spectrometry; label = protein component

Q: With B1 as the molecule, how does the “Total Spectra Count Matrix C” value read?
A: 0

Q: With B2 as the molecule, how does the “Total Spectra Count Matrix C” value read?
A: 0

Q: For B3, which “Total Spectra Count Matrix C” value is on record?
A: 0

Q: With B4 as the molecule, how does the “Total Spectra Count Matrix C” value read?
A: 0

Q: With B5 as the molecule, how does the “Total Spectra Count Matrix C” value read?
A: 3

Q: With B6 as the molecule, how does the “Total Spectra Count Matrix C” value read?
A: 0

Q: With B7 as the molecule, how does the “Total Spectra Count Matrix C” value read?
A: 0

Same assay, conditions: amniotic fluid cell-derived ECM Matrix D, mass spectrometry; label = protein component

Q: Which “Total Spectra Count Matrix D” value does the source give for B1 here?
A: 1

Q: With B2 as the molecule, how does the “Total Spectra Count Matrix D” value read?
A: 0

Q: For B3, which “Total Spectra Count Matrix D” value is on record?
A: 3

Q: For B4, which “Total Spectra Count Matrix D” value is on record?
A: 0

Q: For B5, which “Total Spectra Count Matrix D” value is on record?
A: 0

Q: For B6, which “Total Spectra Count Matrix D” value is on record?
A: 2

Q: Which “Total Spectra Count Matrix D” value does the source give for B7 here?
A: 0
